## Percent effect of library compounds

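Whole-parasite assay of Trypanosoma brucei over 72 hours; the read-out is not stated. Tested at 30 µM. The record gives no direction; compounds that gave an IC50 in retests scored well above the rest, so higher reads as stronger inhibition. Values scatter widely below zero; nearly all retest evidence comes from the higher of the two concentrations used. Of about 64,000 compounds tested this way, about 940 (1.5%) reached 50% or more in at least one test.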

Results are given as percent effect. The controls that fix the scale are not given in the record; negative values are as filed. Compounds were drawn at random from those tested, without regard to their results.

Compound: CN(C)c1ncnc2c1CCN(C(=O)c1cccnc1)CC2.O=C(O)C(F)(F)F
effect: -20.72

Compound: Cc1ccc(CN2CCS(=O)(=O)C(C)(C)C2)cc1C
effect: 8.284

Compound: [H][C@@]12COC[C@@H](CC(=O)N3CCCO3)[C@]1([H])CN(Cc1c(C)noc1C)C2
effect: 30.58

Compound: Cc1ccoc1C(=O)NCCOc1ccc(C(F)(F)F)cn1
effect: -14.52

Compound: Cc1nc(N2CCCC2)ncc1-c1cc(O)nc(N2CCCCC2)n1
effect: -25.67

Compound: Fc1ccccc1CN1CCCC(NC2CCOCC2)C1 (stereo not given)
effect: 10.77

Compound: Cc1cc(C(=O)N2CCC3(CC2)CC(c2cccnc2)C(=O)N3C)no1.O=C(O)C(F)(F)F (stereo not given)
effect: -32.09

Compound: O=c1[nH]c(CCN2CCN(CC(F)(F)F)CC2)nc2ccccc12
effect: 15.56

Compound: O=C(N[C@H]1CN(c2ccncc2)C[C@@H]1C1CC1)C1CCOCC1
effect: -4.641

Compound: O=C(CCn1ncc2ccccc21)N1CCCC(Cc2cccnc2)C1 (stereo not given)
effect: 0.3805

Compound: CNc1cc2c(nn1)CCN(C(=O)c1ccoc1)C2
effect: -9.304

Compound: CN(C)CCN(C)S(=O)(=O)Cc1ccc(Br)cc1
effect: -41.35

Compound: CCn1cc(NC(=O)NCCN2CCCc3ccccc32)cn1
effect: -143.6

Compound: COc1ccnc(N2CCN(CC(=O)N3CCOC(C)C3)CC2)n1 (stereo not given)
effect: 15.4

Compound: CCn1cc2c(n1)CN(CC1CC1)CC2COCC1CC1.O=C(O)C(F)(F)F (stereo not given)
effect: 22.8

Compound: CCn1ccnc1S(=O)(=O)Cc1c(C)cc(C)c(C(C)=O)c1C
effect: -18.51

Compound: O=C(N[C@@H]1CCNC[C@H]1O)c1ccc(F)c(F)c1
effect: -17.46

Compound: COc1ccccc1NC(=O)CSC1CCc2ccccc2NC1=O (stereo not given)
effect: 29.44

Compound: Cc1ccc(CC(=O)NCC(O)c2ccc(Cl)cc2Cl)cn1 (stereo not given)
effect: -73.27

Compound: COc1ccc(OCCN(C)S(=O)(=O)N2CCOCC2)cc1
effect: -65.24

Compound: Cc1nn(C)c(Cl)c1C1CCCN1C(=O)c1cccn1C (stereo not given)
effect: -6.425

Compound: Cc1ccc(CNC(=O)C2=NOC3(CCCNC3)C2)cc1 (stereo not given)
effect: -8.208

Compound: CCc1nc(C)cn1C(=O)Nc1ccc(C)cc1
effect: -1.507

Compound: Cn1cc(CC2CCN(C(=O)NCCc3cccc(O)c3)C2)cn1 (stereo not given)
effect: 5.72

Compound: Cc1cccc(CN2CCc3[nH]nc(C(=O)N4CCOCC4)c3C2)n1
effect: -86.81

Compound: COc1cccc(CC(=O)N2Cc3nccn3CC(CN(C)C)C2)c1 (stereo not given)
effect: -30.08

Compound: Cc1nn(C)c(C)c1CN(CCO)C(=O)C1COc2ccccc2C1 (stereo not given)
effect: -19.69

Compound: Cc1cc(C)n(CC2CCCN2CCC(=O)Nc2cc(C)on2)n1 (stereo not given)
effect: 11.92

Compound: Cn1cc(CN2CCc3ncnc(C4CCOC4)c3CC2)cn1 (stereo not given)
effect: -31.92

Compound: [H][C@@]12COC[C@]1([H])[C@@H](OCc1cccnc1)CN2C(=O)c1ccc(C#N)cc1
effect: -61.9

Compound: CC(O)CCN(C)c1nc2ccccc2c(=O)[nH]1 (stereo not given)
effect: 3.712

Compound: CCc1nc(CN(CC(N)=O)C(C)C)cs1
effect: 3.692

Compound: Cc1ncsc1C(=O)NC1CCN(CC(N)=O)CC1
effect: 10.5

Compound: CCC(CO)N(Cc1ccsc1)Cc1cccc(O)c1 (stereo not given)
effect: 10.68

Compound: CNC(=O)c1ccc(N(C)C2CCC2)nn1
effect: -0.7793

Compound: CCN1CC(C(=O)NC(C)(C)CC(C)(C)C)CC1=O (stereo not given)
effect: -5.387

Compound: Cc1ccc(CN2CCOC3(COCCN(C(C)C)C3)C2)s1.O=C(O)C(F)(F)F.O=C(O)C(F)(F)F (stereo not given)
effect: -84.27

Compound: CNC(=O)c1nc2c(s1)CCN(C(=O)c1ccc(OC)cc1)CC2
effect: -21.23

Compound: CCOc1cccc(C(=O)N2CCN(c3nccc(OC)n3)CC2)c1
effect: -33.96

Some entries from above, unchanged:

- CC(O)CCN(C)c1nc2ccccc2c(=O)[nH]1 (stereo not given) | 3.712%
- CCC(CO)N(Cc1ccsc1)Cc1cccc(O)c1 (stereo not given) | 10.68%
- Cn1cc(CC2CCN(C(=O)NCCc3cccc(O)c3)C2)cn1 (stereo not given) | 5.72%

Measurements from “University of Dundee, Small-Polar-MMV Screening Library” (2021), ChEMBL document CHEMBL3988442.